In assay [1] the target is HIS-PI3K/p85-SH3 (human) (UniProt O00459). Nature of the assay: GST pull-down, immunoblot with His-tag antibody. (A western blot detects proteins with antibodies after separation by electrophoresis.)
Assay [2] shares this target. Put plainly: GST pull-down, immunoblot with His-tag antibody (FIG. 6C).

Sequences of proteins named here, by UniProt entry; tags and fusion partners are left off. Residues count along the entry.
UniProt O00459, residues 4-80: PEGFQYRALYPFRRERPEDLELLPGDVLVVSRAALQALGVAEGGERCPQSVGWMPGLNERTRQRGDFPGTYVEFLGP

Results are given in words; binding and its absence hold for the method and conditions named. Some results given as binding are weak or reduced against the parent protein; the word gives no strength. Where a sequence is shown, tags or fusion partners need not be part of it.

This note sets out measurements from patent US20170363632A1, “Biomarker Kit for Metastatic Breast Cancer Prognosis and Uses Thereof” (University of Maryland, Baltimore, priority 2016, published 2017).

B1: GST-obscurin-PH (protein, human, UniProt Q5VST9 5895-6004, looked up, not shown: a dimerising Fc or GST)
chain: EPIRQGHFIVWEGAPGARMPWKGHNRHVFLFRNHLVICKPRRDSRTDTVSYVFRNMMKLSSIDLNDQVEGDDRAFEVWQEREDSVRKYLLQARTAIIKSSWVKEICGIQQ
With B1, the binding result with HIS-PI3K/p85-SH3 (human) [1] and with HIS-PI3K/p85-SH3 (human) [2] was “binds” each time.
